Results as given in patent US9511057B2, “Methods for treating denervation-induced muscle atrophy” (THE BOARD OF TRUSTEES OF THE LELAND STANFORD JUNIOR …, priority 2013, dated 2016).
“Also recorded” adds a separate entry of the source. At least one compound was matched to its structure with a doubt left.

What was measured:
eIF4E = assay: Immunoblot of eIF4E phosphorylation in denervated gastrocnemius muscle; type: in vivo, mouse; conditions: FIG. 5A
denervated TA muscles = assay: Gene electrotransfer of FoxO-DN into denervated TA muscle, CSA of GFP+ fibers, with or without rapamycin; type: in vivo, mouse; conditions: FIG. 4G
4EBP1 = assay: Immunoblot of 4EBP1 phosphorylation in denervated gastrocnemius muscle; type: in vivo, mouse; conditions: FIG. 5A
FoxO1 = assay: Western blot of FoxO1 phosphorylation in denervated gastrocnemius muscle; type: in vivo, mouse; conditions: FIG. 4F
ubiquitin = assay: Western blot of protein polyubiquitination in denervated gastrocnemius muscle; type: in vivo, mouse; conditions: FIG. 4D
myogenin = assay: Real-time PCR of myogenin mRNA in denervated muscle; type: in vivo, mouse; conditions: 15 days after denervation; FIG. 4E
eIF4H = assay: Immunoblot of eIF4H total protein in denervated gastrocnemius muscle; type: in vivo, mouse; conditions: FIG. 5A
MuRF1 = assay: Real-time PCR of MuRF1 mRNA in denervated muscle; type: in vivo, mouse; conditions: 15 days after denervation; mRNA normalized to γ-actin; FIG. 4C
Akt = assay: Western blot of Akt phosphorylation in denervated gastrocnemius muscle; type: in vivo, mouse; conditions: FIG. 4F
Denervated NSA mice = assay: Denervation by sciatic nerve injury with in vivo rapamycin: fiber cross-sectional area and weight of denervated muscle; design: species or system mouse; conditions: 15 days after denervation, normalized to contralateral innervated muscle; for reduction in cross-sectional area of muscle fibers following denervation: FIG. 4A; for muscle weight loss following denervation (TA and gastrocnemius): FIG. 4B
[1] = test system: insulin receptor substrate 1 (IRS1); assay: Western blot of IRS1 phosphorylation in denervated muscle; type: in vivo, mouse; conditions: FIG. 4F
S6 = assay: Western blot of S6 phosphorylation in denervated gastrocnemius muscle; type: in vivo, mouse; conditions: FIG. 4F
eIF4G = assay: Immunoblot of eIF4G phosphorylation in denervated gastrocnemius muscle; type: in vivo, mouse; conditions: FIG. 5A
eIF4B = assay: Immunoblot of eIF4B phosphorylation in denervated gastrocnemius muscle; type: in vivo, mouse; conditions: FIG. 5A
atrogin = assay: Real-time PCR of atrogin mRNA in denervated muscle; type: in vivo, mouse; conditions: 15 days after denervation; mRNA normalized to γ-actin; FIG. 4C

## CO[C@H]1C[C@@H]2CC[C@@H](C)[C@@](O)(O2)C(=O)C(=O)N2CCCC[C@H]2C(=O)O[C@H]([C@H](C)C[C@@H]2CC[C@@H](O)[C@H](OC)C2)CC(=O)[C@H](C)/C=C(\C)[C@@H](O)[C@@H](OC)C(=O)[C@H](C)C[C@H](C)/C=C/C=C/C=C/1C [rapamycin, Rapamycin]
eIF4E
  denervation-increased phosphorylation of eIF4E: rapamycin-insensitive
Denervated TA muscles; fibers electroporated with the control plasmid
  reduction in cross-sectional area following denervation, GFP-positive fibers: prevented the reduction in cross-sectional area
Denervated TA muscles; fibers electroporated with the dominant-negative form of FoxO
  cross-sectional area following denervation, GFP-positive fibers: did not have an additional effect
4EBP1
  denervation-increased phosphorylation of 4EBP1 (Thr37, Thr46, Ser65): none of these phosphorylation events were particularly sensitive
FoxO1
  denervation-suppressed phosphorylation of FoxO1 (Ser256): rescued
ubiquitin
  protein polyubiquitination: significantly reduced
myogenin
  denervation-induced expression of the gene encoding myogenin: not affected
eIF4H
  denervation-increased total protein abundance of eIF4H: rapamycin-insensitive
MuRF1
  denervation-induced expression of the gene encoding MuRF1: significantly reduced
Akt; denervated gastrocnemius
  denervation-suppressed phosphorylation of Akt (Thr308): rescued
Akt; denervated muscle, compared to Akt-Thr308
  reduction of phosphorylated Akt-Ser473 over total Akt following denervation: mild recue effect
Denervated NSA mice
  reduction in cross-sectional area of muscle fibers following denervation: partially rescues
  muscle weight loss following denervation (TA and gastrocnemius): partially rescues; also recorded: significantly prevented
Denervated NSA mice; listed as Rapamycin
  reduction in cross-sectional area of muscle fibers following denervation: significantly prevented
  muscle weight loss following denervation (TA and gastrocnemius): significantly prevented
[1]
  phosphorylation of insulin receptor substrate 1 (IRS1) increased in denervated muscle: inhibited
S6
  denervation-induced phosphorylation of S6: inhibited
eIF4G
  denervation-suppressed phosphorylation of eIF4G: partially recovered
eIF4B
  denervation-increased phosphorylation of eIF4B at Ser422: reversed
atrogin
  denervation-induced expression of the gene encoding atrogin: significantly reduced
